The other results are listed elsewhere or left out.
Legend:
Experiment in all cases: log2 fold change, soluble protein after heating vs DMSO (PISA); higher = thermal stabilisation; K562 lysate, 10 uM; active = over 0.2 and 3.5 SD of the protein, either way, in both replicates (recomputed)
nilotinib = compound: Cc1cn(-c2cc(NC(=O)c3ccc(C)c(Nc4nccc(-c5cccnc5)n4)c3)cc(C(F)(F)F)c2)cn1 [nilotinib]
Summary of the method: (§1)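 Following dounce homogenisation of K562 pellets in PBS pH 7.4 with 1 mM MgCl2, crude extract at 1 mg/mL protein was incubated for 30 min with 10 μM compound. Aliquots were then heated for 3 min over 48°C-58°C and pooled, NP-40 was added to 0.5% at 4°C, and soluble protein was recovered as the supernatant at 21,000xg for 90 min. Channel-sum-equalised TMTpro 16plex LC-MS/MS quantified this protein. Each value, from duplicates, is a log-two fold change in thermal stability relative to solvent controls.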

The chains behind the UniProt entries cited, without tags or fusion partners. Where a name states a change or a piece, a line headed by the entry shows the natural chain unless it says otherwise.
UniProt Q9UL54: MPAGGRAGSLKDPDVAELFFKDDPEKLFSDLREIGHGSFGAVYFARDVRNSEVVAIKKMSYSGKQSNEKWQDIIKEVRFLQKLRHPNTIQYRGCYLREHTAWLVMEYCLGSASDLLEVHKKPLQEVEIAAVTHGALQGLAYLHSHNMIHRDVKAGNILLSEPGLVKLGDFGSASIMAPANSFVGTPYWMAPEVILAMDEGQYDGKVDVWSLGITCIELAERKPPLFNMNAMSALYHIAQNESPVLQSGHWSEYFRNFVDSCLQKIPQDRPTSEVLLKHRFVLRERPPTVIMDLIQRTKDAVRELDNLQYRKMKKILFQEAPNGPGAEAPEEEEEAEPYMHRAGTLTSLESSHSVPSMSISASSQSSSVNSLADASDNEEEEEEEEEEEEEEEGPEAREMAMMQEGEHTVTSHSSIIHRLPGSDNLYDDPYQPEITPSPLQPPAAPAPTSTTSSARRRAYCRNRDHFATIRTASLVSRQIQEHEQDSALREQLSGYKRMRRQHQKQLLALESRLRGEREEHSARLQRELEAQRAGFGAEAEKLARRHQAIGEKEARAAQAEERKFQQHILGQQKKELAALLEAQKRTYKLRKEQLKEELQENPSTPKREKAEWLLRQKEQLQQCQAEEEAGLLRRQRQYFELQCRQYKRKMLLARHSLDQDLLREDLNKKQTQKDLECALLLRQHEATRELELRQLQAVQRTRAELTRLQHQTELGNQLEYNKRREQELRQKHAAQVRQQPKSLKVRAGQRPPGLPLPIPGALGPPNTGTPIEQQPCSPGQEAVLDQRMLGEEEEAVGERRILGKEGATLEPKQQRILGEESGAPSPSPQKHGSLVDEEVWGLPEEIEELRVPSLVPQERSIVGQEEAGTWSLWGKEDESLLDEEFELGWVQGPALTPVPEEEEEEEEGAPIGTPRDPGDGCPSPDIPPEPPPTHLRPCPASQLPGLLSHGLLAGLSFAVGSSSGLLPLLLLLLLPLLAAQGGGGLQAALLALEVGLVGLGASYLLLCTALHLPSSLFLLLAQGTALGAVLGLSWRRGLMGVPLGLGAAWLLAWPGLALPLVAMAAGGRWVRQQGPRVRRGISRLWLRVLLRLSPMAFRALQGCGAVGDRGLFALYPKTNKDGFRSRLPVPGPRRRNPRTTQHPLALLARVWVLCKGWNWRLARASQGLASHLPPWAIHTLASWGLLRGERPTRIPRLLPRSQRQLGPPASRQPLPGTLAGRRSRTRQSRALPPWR
UniProt P20226, whole entry, looked up: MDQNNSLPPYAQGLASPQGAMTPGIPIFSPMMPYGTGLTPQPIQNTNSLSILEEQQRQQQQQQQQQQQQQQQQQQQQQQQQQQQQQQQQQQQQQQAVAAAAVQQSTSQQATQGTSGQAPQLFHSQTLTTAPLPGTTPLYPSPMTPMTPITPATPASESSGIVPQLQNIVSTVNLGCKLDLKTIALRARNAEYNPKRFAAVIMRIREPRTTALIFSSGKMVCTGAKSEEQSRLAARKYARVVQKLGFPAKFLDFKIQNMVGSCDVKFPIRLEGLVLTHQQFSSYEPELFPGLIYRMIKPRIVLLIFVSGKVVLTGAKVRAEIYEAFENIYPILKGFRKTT
UniProt O60347: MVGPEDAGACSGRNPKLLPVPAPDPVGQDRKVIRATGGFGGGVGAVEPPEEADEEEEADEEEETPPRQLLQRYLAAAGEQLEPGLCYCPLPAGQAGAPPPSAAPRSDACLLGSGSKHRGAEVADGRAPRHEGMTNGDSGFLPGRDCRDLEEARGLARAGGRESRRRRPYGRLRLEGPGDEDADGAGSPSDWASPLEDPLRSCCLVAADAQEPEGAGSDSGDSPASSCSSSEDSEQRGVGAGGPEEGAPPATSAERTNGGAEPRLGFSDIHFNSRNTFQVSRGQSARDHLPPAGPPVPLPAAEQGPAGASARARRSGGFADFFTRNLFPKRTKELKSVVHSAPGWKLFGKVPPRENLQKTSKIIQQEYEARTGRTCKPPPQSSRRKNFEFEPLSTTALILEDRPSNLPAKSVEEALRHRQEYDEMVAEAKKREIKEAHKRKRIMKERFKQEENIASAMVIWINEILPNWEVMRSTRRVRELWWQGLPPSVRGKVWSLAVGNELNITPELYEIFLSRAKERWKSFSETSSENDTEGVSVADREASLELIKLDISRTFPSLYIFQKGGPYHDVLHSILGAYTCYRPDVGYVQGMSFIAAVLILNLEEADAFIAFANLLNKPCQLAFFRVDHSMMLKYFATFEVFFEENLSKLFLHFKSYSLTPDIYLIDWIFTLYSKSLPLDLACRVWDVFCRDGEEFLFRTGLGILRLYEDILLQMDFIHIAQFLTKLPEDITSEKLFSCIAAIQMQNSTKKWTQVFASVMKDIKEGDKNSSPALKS
UniProt Q96BZ9: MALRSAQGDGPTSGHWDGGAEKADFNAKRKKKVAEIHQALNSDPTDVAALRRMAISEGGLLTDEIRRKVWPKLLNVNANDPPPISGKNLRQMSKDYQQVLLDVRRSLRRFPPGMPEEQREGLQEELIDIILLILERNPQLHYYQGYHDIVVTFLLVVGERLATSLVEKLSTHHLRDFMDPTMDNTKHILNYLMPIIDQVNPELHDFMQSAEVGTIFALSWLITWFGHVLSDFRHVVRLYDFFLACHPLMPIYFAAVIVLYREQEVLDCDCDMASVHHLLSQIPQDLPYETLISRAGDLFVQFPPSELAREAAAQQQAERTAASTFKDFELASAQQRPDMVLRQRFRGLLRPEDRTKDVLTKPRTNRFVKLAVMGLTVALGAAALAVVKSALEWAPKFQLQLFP
UniProt Q7L2K0: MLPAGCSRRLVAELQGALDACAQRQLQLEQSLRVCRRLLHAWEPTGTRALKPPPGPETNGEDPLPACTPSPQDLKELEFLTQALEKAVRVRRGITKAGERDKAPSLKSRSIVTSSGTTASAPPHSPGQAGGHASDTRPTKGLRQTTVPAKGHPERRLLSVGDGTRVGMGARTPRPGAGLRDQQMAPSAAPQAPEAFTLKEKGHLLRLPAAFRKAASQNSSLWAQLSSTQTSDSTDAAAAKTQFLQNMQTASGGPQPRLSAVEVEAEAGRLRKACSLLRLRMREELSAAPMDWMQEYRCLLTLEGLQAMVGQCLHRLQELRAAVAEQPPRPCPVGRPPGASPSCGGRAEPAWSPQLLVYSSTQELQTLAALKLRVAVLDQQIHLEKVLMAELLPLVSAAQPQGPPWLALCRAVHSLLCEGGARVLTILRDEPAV
UniProt Q99594, whole entry, looked up: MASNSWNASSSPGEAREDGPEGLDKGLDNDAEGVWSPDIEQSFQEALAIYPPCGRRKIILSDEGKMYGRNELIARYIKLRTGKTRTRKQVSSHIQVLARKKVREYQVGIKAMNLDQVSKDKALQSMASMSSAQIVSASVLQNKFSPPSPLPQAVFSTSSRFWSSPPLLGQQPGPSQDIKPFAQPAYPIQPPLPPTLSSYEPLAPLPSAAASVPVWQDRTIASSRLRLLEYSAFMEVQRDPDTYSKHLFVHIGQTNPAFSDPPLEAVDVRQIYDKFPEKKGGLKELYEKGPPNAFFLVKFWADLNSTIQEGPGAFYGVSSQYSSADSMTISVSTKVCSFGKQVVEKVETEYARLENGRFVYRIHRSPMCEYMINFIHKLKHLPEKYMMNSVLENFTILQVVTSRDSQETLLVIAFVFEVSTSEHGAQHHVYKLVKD
UniProt Q9UK61: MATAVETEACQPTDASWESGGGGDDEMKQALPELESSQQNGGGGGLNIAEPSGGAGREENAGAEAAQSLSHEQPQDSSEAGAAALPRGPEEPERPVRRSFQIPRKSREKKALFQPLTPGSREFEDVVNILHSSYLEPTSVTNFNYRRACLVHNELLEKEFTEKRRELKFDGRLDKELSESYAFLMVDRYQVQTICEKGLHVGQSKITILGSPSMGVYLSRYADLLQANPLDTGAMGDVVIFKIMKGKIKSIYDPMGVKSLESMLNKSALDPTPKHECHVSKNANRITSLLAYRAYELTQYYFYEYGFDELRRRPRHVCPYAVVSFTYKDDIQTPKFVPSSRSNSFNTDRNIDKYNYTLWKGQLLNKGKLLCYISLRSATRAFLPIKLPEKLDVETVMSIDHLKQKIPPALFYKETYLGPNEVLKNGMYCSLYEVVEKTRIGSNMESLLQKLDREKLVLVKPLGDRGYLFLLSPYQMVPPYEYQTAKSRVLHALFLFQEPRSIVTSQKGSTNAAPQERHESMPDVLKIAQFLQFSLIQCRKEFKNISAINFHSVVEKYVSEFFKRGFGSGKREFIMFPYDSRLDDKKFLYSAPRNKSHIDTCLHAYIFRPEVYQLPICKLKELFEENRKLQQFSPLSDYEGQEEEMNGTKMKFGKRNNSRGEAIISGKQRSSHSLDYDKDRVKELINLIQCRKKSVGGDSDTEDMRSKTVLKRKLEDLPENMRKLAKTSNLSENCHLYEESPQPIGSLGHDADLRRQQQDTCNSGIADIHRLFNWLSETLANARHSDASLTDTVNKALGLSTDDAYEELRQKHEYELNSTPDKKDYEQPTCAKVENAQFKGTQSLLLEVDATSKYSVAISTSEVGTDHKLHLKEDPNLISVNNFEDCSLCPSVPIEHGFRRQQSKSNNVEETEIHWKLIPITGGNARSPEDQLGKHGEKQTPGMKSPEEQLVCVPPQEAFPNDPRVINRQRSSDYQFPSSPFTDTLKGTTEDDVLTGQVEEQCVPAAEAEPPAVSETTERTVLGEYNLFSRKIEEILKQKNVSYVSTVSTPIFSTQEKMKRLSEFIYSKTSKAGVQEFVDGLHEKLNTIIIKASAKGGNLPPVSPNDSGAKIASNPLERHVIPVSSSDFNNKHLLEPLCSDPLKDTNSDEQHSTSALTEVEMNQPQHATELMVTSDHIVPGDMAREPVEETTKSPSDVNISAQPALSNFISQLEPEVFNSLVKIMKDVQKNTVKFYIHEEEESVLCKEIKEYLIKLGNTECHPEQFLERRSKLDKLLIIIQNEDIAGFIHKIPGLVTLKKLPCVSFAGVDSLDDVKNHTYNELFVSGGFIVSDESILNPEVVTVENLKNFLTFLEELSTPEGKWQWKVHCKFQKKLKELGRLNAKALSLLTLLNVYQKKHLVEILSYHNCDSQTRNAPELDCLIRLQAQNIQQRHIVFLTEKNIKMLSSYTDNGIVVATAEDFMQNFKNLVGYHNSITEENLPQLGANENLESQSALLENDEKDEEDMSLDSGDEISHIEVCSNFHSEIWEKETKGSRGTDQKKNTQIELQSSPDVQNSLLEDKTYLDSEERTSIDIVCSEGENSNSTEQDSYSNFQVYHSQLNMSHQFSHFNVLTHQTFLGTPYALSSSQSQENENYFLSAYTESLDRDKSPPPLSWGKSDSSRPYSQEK
UniProt P10646, whole entry, looked up: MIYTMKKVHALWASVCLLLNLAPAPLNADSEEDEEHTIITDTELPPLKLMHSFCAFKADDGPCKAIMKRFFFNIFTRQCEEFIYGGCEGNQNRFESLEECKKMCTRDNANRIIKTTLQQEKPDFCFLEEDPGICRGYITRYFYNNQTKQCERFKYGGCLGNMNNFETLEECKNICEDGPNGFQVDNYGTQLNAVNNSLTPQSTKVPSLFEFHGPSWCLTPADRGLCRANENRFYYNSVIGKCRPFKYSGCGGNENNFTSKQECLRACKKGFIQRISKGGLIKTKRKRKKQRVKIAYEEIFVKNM
UniProt Q15561, whole entry, looked up: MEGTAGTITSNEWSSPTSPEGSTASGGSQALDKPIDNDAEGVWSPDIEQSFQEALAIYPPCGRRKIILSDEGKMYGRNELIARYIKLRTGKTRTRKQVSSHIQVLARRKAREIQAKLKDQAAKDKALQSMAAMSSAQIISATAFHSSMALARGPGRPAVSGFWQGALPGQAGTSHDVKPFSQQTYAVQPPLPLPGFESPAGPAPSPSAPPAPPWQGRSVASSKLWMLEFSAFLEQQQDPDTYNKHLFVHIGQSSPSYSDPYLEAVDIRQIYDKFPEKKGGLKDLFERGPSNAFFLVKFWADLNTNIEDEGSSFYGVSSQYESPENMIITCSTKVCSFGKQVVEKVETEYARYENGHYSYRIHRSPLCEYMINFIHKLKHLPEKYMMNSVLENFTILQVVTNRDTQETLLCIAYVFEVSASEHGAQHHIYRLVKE
UniProt Q8N9U0: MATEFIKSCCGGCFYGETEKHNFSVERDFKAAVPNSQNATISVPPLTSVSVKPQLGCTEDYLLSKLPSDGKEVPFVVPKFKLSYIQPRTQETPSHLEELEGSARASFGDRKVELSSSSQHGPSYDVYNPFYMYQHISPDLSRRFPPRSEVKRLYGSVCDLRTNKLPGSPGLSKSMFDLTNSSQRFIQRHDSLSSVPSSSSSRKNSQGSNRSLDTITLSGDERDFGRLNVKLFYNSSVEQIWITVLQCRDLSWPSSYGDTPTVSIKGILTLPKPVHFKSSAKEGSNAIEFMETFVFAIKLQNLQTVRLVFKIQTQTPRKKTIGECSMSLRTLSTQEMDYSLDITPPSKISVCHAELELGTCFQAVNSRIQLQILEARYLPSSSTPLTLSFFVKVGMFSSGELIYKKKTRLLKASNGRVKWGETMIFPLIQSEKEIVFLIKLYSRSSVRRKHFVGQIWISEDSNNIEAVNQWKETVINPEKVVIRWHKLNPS

[1] = compound: Cc1nc(Nc2n[nH]c3c2CN(C(=O)N[C@H](CN(C)C)c2ccccc2)C3(C)C)c2sccc2n1
Summary of the method: as §1

dasatinib = compound: Cc1nc(Nc2ncc(C(=O)Nc3c(C)cccc3Cl)s2)cc(N2CCN(CCO)CC2)n1 [dasatinib]
Summary of the method: as §1

[2] = compound: Cc1ncc(-c2ccnc(Nc3ccc(S(C)(=O)=O)cc3)n2)n1C(C)C
Summary of the method: as §1

[3] = compound: Cn1cc(-c2ccc3c(c2)CCN3C(=O)Cc2cccc(C(F)(F)F)c2)c2c(N)ncnc21
Summary of the method: as §1

quisinostat = compound: Cn1cc(CNCC2CCN(c3ncc(C(=O)NO)cn3)CC2)c2ccccc21 [quisinostat]
Summary of the method: as §1

tipifarnib = compound: Cn1cncc1[C@@](N)(c1ccc(Cl)cc1)c1ccc2c(c1)c(-c1cccc(Cl)c1)cc(=O)n2C [tipifarnib]
Summary of the method: as §1

[4] = compound: NC(=O)Nc1cc(-c2cccc(F)c2)sc1C(=O)N[C@H]1CCCNC1
Summary of the method: as §1

[5] = compound: NC(=O)c1cnc(N[C@@H]2CCCC[C@@H]2N)nc1Nc1cccc(-n2nccn2)c1
Summary of the method: as §1

[6] = compound: NCC(=O)Nc1ccc(-n2nc(C(F)(F)F)cc2-c2ccc3c(ccc4ccccc43)c2)cc1
Summary of the method: as §1

[7] = compound: O=C1NC(=O)C(c2cnc3ccccn23)=C1c1cn2c3c(cc(F)cc13)CN(C(=O)N1CCCCC1)CC2
Summary of the method: as §1

entospletinib = compound: c1cn2cc(-c3ccc4cn[nH]c4c3)nc(Nc3ccc(N4CCOCC4)cc3)c2n1 [entospletinib]
Summary of the method: as §1

[8] = compound: NC1(c2ccc(-c3nc4ccn5c(=O)[nH]nc5c4cc3-c3ccccc3)cc2)CCC1
Summary of the method: as §1

vorinostat = compound: O=C(CCCCCCC(=O)Nc1ccccc1)NO [vorinostat]
Summary of the method: as §1

silmitasertib = compound: O=C(O)c1ccc2c(c1)nc(Nc1cccc(Cl)c1)c1ccncc12 [silmitasertib]
Summary of the method: as §1

Target | log2 fold change (nilotinib) | log2 fold change [1] | log2 fold change (dasatinib) | log2 fold change [2] | log2 fold change [3] | log2 fold change (quisinostat) | log2 fold change (tipifarnib) | log2 fold change [4] | log2 fold change [5] | log2 fold change [6] | log2 fold change [7] | log2 fold change (entospletinib) | log2 fold change [8] | log2 fold change (vorinostat) | log2 fold change (silmitasertib)
TAOK2 (UniProt Q9UL54) | inactive: 0.033 | inactive: -0.069 | inactive: -0.231 | inactive: 0.012 | inactive: 0.052 | active: -0.516 | inactive: 0.033 | inactive: 0.022 | inactive: -0.008 | inactive: 0.015 | inactive: -0.051 | inactive: 0.01 | – | – | –
TBP (UniProt P20226) | inactive: -0.035 | inactive: -0.037 | inactive: -0.028 | inactive: -0.018 | inactive: 0.004 | inactive: -0.153 | inactive: -0.063 | inactive: 0.047 | inactive: 0.035 | – | inactive: -0.011 | inactive: -0.215 | inactive: -0.012 | inactive: -0.156 | inactive: 0.038
TCF4 (UniProt P15884) | inactive: -0.004 | inactive: -0.139 | inactive: 0.077 | inactive: -0.057 | inactive: 0.01 | inactive: 0.161 | inactive: -0.147 | inactive: 0.064 | inactive: 0.016 | – | inactive: 0.078 | inactive: -0.074 | – | – | –
TENT4B isoform 5 (UniProt Q8NDF8) | inactive: 0.181 | inactive: -0.203 | – | inactive: 0.115 | – | inactive: -0.034 | inactive: 0.206 | inactive: 0.093 | – | – | inactive: 0.069 | – | inactive: -0.069 | inactive: -0.023 | inactive: -0.264
TANC2 isoform 2 (UniProt Q9HCD6) | inactive: 0.032 | inactive: -0.004 | inactive: -0.236 | inactive: -0.059 | inactive: 0.011 | – | inactive: -0.1 | – | – | – | – | – | inactive: 0.206 | inactive: -0.555 | inactive: -0.249
TBCK (UniProt Q8TEA7) | inactive: 0.115 | inactive: -0.14 | inactive: 0.016 | inactive: -0.008 | inactive: -0.03 | inactive: -0.066 | inactive: 0.082 | inactive: 0.062 | inactive: 0.074 | – | inactive: -0.07 | inactive: -0.014 | inactive: 0.023 | inactive: -0.048 | inactive: -0.159
TBC1D12 (UniProt O60347) | – | – | inactive: 0.001 | – | inactive: 0.006 | inactive: -0.092 | – | inactive: 0.046 | inactive: -0.006 | inactive: 0.418 | inactive: 0.001 | inactive: -0.102 | inactive: -0.006 | inactive: -0.267 | inactive: -0.008
TBC1D20 isoform 3 (UniProt Q96BZ9) | – | – | inactive: 0.027 | – | inactive: -0.053 | inactive: -0.021 | – | inactive: 0.067 | inactive: -0.072 | inactive: -0.118 | inactive: 0.058 | inactive: 0.02 | inactive: -0.006 | inactive: 0.088 | inactive: -0.013
TASOR2 (UniProt Q5VWN6) | inactive: -0.096 | inactive: 0.069 | inactive: 0 | inactive: -0.051 | inactive: 0.145 | – | inactive: 0.014 | – | – | – | – | inactive: 0.037 | – | – | –
TEDC2 (UniProt Q7L2K0) | inactive: -0.006 | inactive: 0.038 | – | inactive: -0.017 | – | inactive: -0.103 | inactive: -0.112 | inactive: 0.075 | inactive: -0.039 | – | inactive: -0.221 | – | – | – | –
TCP11L2 (UniProt Q8N4U5) | – | – | – | – | – | – | – | – | – | inactive: 0.014 | – | inactive: -0.104 | inactive: 0.066 | inactive: -0.16 | inactive: 0.05
TEAD3 (UniProt Q99594) | – | – | inactive: -0.157 | – | inactive: 0.02 | inactive: -0.04 | – | inactive: 0.008 | – | – | inactive: 0.037 | inactive: -0.026 | inactive: 0.149 | inactive: -0.106 | inactive: 0
TASOR (UniProt Q9UK61) | – | – | inactive: 0 | – | inactive: -0.006 | inactive: -0.013 | – | inactive: 0.017 | – | inactive: 0.067 | inactive: -0.01 | inactive: -0.018 | inactive: -0.042 | inactive: 0.114 | inactive: 0
TAZ (UniProt Q16635) | – | – | – | – | – | inactive: 0.105 | – | inactive: 0.157 | inactive: 0.023 | – | inactive: 0 | – | inactive: -0.146 | inactive: 0.373 | inactive: -0.304
TFPI isoform 2 (UniProt P10646) | – | – | – | – | – | inactive: -0.087 | – | inactive: 0.082 | – | inactive: 0.184 | inactive: 0.019 | – | – | – | –
TEAD4 (UniProt Q15561) | – | – | – | – | – | – | – | – | – | – | – | – | inactive: 0.237 | inactive: -0.058 | inactive: -0.201
TC2N (UniProt Q8N9U0) | – | – | – | – | – | – | – | – | – | inactive: 0.005 | – | inactive: -0.009 | – | – | –

Looked up one by one from above, two records:
Target | log2 fold change (nilotinib) | log2 fold change [1] | log2 fold change (dasatinib) | log2 fold change [2] | log2 fold change [3] | log2 fold change (quisinostat) | log2 fold change (tipifarnib) | log2 fold change [4] | log2 fold change [5] | log2 fold change [6] | log2 fold change [7] | log2 fold change (entospletinib) | log2 fold change [8] | log2 fold change (vorinostat) | log2 fold change (silmitasertib)
TC2N (UniProt Q8N9U0) | – | – | – | – | – | – | – | – | – | inactive: 0.005 | – | inactive: -0.009 | – | – | –
TEDC2 (UniProt Q7L2K0) | inactive: -0.006 | inactive: 0.038 | – | inactive: -0.017 | – | inactive: -0.103 | inactive: -0.112 | inactive: 0.075 | inactive: -0.039 | – | inactive: -0.221 | – | – | – | –
